No constants are given. Whether binding was seen depends on the method and setting. In cells and extracts the contact can be indirect. Some entries that bind do so weakly or less than the wild type.

The assay has as its target T1, SNAP23 (human (endogenous in H69)) (UniProt O00161).
T1 sequence: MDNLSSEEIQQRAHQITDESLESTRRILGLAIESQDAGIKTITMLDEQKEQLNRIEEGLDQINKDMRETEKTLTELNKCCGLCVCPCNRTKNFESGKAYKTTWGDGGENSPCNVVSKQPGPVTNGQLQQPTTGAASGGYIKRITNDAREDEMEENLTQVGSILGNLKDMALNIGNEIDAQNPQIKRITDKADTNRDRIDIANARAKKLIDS
In words: co-IP; H69 cells, non-infected or exposed to C. parvum for 24 h; interaction of SNAP23 and IKK2 measured by IP; which protein was precipitated is not told in the shown text (details in Text S1).

B1: IKK2 (enzyme, UniProt O14920 1-756)
chain: MSWSPSLTTQTCGAWEMKERLGTGGFGNVIRWHNQETGEQIAIKQCRQELSPRNRERWCLEIQIMRRLTHPNVVAARDVPEGMQNLAPNDLPLLAMEYCQGGDLRKYLNQFENCCGLREGAILTLLSDIASALRYLHENRIIHRDLKPENIVLQQGEQRLIHKIIDLGYAKELDQGSLCTSFVGTLQYLAPELLEQQKYTVTVDYWSFGTLAFECITGFRPFLPNWQPVQWHSKVRQKSEVDIVVSEDLNGTVKFSSSLPYPNNLNSVLAERLEKWLQLMLMWHPRQRGTDPTYGPNGCFKALDDILNLKLVHILNMVTGTIHTYPVTEDESLQSLKARIQQDTGIPEEDQELLQEAGLALIPDKPATQCISDGKLNEGHTLDMDLVFLFDNSKITYETQISPRPQPESVSCILQEPKRNLAFFQLRKVWGQVWHSIQTLKEDCNRLQQGQRAAMMNLLRNNSCLSKMKNSMASMSQQLKAKLDFFKTSIQIDLEKYSEQTEFGITSDKLLLAWREMEQAVELCGRENEVKLLVERMMALQTDIVDLQRSPMGRKQGGTLDDLEEQARELYRRLREKPRDQRTEGDSQEMVRLLLQAIQSFEKKVRVIYTQLSKTVVCKQKALELLPKVEEVVSLMNEDEKTVVRLQEKRQKELWNLLKIACSKVRGPVSGSPDSMNASRLSQPGQLMSQPSTASNSLPEPAKKSEELVAEAHNLCTLLENAIQDTVREQDQSFTALDWSWLQTEEEEHSCLEQAS
As for B1, the binding entry was “binds”.

The record behind these values is article PMC3617097.
